Data published in the supplement of paper PMC9233669.
This sample is rich in variants without activity.

What was measured:
biotinyl-Met-oxazolone = assay: self-aminoacylation, catalytic enhancement (BMO) (fold over background); higher = more active; k-Seq, kA / k0A0; sequences stand for … in GGGAAUGGAUCCACAUCUACGAAUUC…UUCACUGCAGACUUGACGAAGCUG
Summary of the method: (§1)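 Working in 50 μL HEPES/NaCl/KCl/MgCl2/CaCl2 buffer with 5% acetonitrile at pH 6.9–7.0, mutagenized RNA pools (0.43 μM; 21-nt variable region) were reacted with 2–1250 μM of each biotinyl-aminoacyl-oxazolone for 90 minutes at room temperature. Streptavidin capture followed, with quantification by triplicate qPCR and Illumina sequencing. Catalytic enhancement is reported as median kA over the uncatalyzed rate, the low-activity peak of a bimodal Gaussian fit to the data.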

biotinyl-Trp-oxazolone = assay: self-aminoacylation, catalytic enhancement (BWO) (fold over background); higher = more active; k-Seq, kA / k0A0; sequences stand for … in GGGAAUGGAUCCACAUCUACGAAUUC…UUCACUGCAGACUUGACGAAGCUG
Summary of the method: as §1

biotinyl-Leu-oxazolone = assay: self-aminoacylation, catalytic enhancement (BLO) (fold over background); higher = more active; k-Seq, kA / k0A0; sequences stand for … in GGGAAUGGAUCCACAUCUACGAAUUC…UUCACUGCAGACUUGACGAAGCUG
Summary of the method: as §1

biotinyl-Val-oxazolone = assay: self-aminoacylation, catalytic enhancement (BVO) (fold over background); higher = more active; k-Seq, kA / k0A0; sequences stand for … in GGGAAUGGAUCCACAUCUACGAAUUC…UUCACUGCAGACUUGACGAAGCUG
Summary of the method: as §1

biotinyl-Ile-oxazolone = assay: self-aminoacylation, catalytic enhancement (BIO) (fold over background); higher = more active; k-Seq, kA / k0A0; sequences stand for … in GGGAAUGGAUCCACAUCUACGAAUUC…UUCACUGCAGACUUGACGAAGCUG
Summary of the method: as §1

biotinyl-Phe-oxazolone = assay: self-aminoacylation, catalytic enhancement (BFO) (fold over background); higher = more active; k-Seq, kA / k0A0; sequences stand for … in GGGAAUGGAUCCACAUCUACGAAUUC…UUCACUGCAGACUUGACGAAGCUG
Summary of the method: as §1

Row | Sequence | self-aminoacylation (biotinyl-Met-oxazolone) | self-aminoacylation (biotinyl-Trp-oxazolone) | self-aminoacylation (biotinyl-Leu-oxazolone) | self-aminoacylation (biotinyl-Val-oxazolone) | self-aminoacylation (biotinyl-Ile-oxazolone) | self-aminoacylation (biotinyl-Phe-oxazolone)
1 | AAGUUUGUUAAUAGUCGCUAG [Fam3.1 aminoacylation ribozyme variant] | 0.884 | 0.885 | 0.78 | 0.832 | 0.883 | 1.57
2 | AAUACCCUGGUCAUCGAGCGA [Fam2.1 aminoacylation ribozyme variant] | 2.03 | 2.75 | 1.55 | 1.66 | 1.65 | 1.56
3 | AAUGACCUAGGUCAUCGGGUG [Fam2.2 aminoacylation ribozyme variant] | 4.56 | 5.22 | 4.85 | 3.56 | 3.66 | 26.1
4 | ACACACUUAAAGCAAUCGGUC [Fam1B.1 aminoacylation ribozyme variant] | 0.917 | 0.971 | 0.923 | 1.11 | 1.08 | 1.23
5 | ACGUUUGAUAAUAGUCGCAAG [Fam3.1 aminoacylation ribozyme variant] | 1.02 | 1.21 | 0.839 | 1.06 | 1.09 | 1.66
6 | ACUACCUUGGUCAUCGAGUGA [Fam2.1 aminoacylation ribozyme variant] | 3.77 | 5.82 | 4.02 | 3.23 | 2.96 | 10.5
7 | AGGUUUGCAAAUAGUCGCAAG [Fam3.1 aminoacylation ribozyme variant] | 1.19 | 0.996 | 1.01 | 1.18 | 1.16 | 1.6
8 | AGGUUUGCUAAUAGUGGCAAG [Fam3.1 aminoacylation ribozyme variant] | 0.726 | 0.69 | 0.646 | 0.635 | 0.65 | 0.676
9 | AGUACCCUGGUCAUCGAGGGA [Fam2.1 aminoacylation ribozyme variant] | 1.22 | 2.91 | 2.21 | 1.47 | 1.43 | 1.82
10 | AGUACCCUGGUCAUUGAGUGA [Fam2.1 aminoacylation ribozyme variant] | 6.37 | 9.07 | 7.4 | 3.39 | 3.86 | 37.2
11 | AGUCACCUAGGUCAGCGGGUG [Fam2.2 aminoacylation ribozyme variant] | 4.31 | 5.59 | 5.54 | 3.77 | 4.2 | 39.5
12 | AGUCACCUAGGUCAUCGGAUG [Fam2.2 aminoacylation ribozyme variant] | 1.21 | 0.786 | 1.18 | 1.04 | 1.2 | 1.24
13 | AGUUACCUAGGUCAUCGGGUG [Fam2.2 aminoacylation ribozyme variant] | 5.38 | 6.91 | 6.47 | 4.62 | 4.59 | 40.1
14 | AUAACCCUGGUCAUCGACUGA [Fam2.1 aminoacylation ribozyme variant] | 0.892 | 0.396 | 0.806 | 0.858 | 0.884 | 0.517
15 | AUACACCUAGGUCACCGGGUG [Fam2.2 aminoacylation ribozyme variant] | 3.09 | 3.79 | 3.78 | 3.23 | 3.29 | 23.3
16 | AUACACCUAGGUCAUAGGGUG [Fam2.2 aminoacylation ribozyme variant] | 1.23 | 2.14 | 1.36 | 1.43 | 1.35 | 3.76
17 | AUACACCUAGGUGAUCGGGUG [Fam2.2 aminoacylation ribozyme variant] | 3.56 | 4.59 | 3.88 | 2.6 | 3.87 | 16.4
18 | AUACUACAAACAAUCGGUCUG [Fam1A.1 aminoacylation ribozyme variant] | 0.818 | 0.838 | 0.652 | 0.886 | 0.764 | 1.36
19 | AUACUUAAAACAAUCGGUCUG [Fam1A.1 aminoacylation ribozyme variant] | 0.922 | 0.726 | 0.713 | 0.883 | 0.886 | 0.784
20 | AUACUUCAAACAAACGGUCUG [Fam1A.1 aminoacylation ribozyme variant] | 0.852 | 0.89 | 0.832 | 0.986 | 0.975 | 0.966
21 | AUACUUCAAACAAUCGGUCAG [Fam1A.1 aminoacylation ribozyme variant] | 0.672 | 1.88 | 0.728 | 0.891 | 0.82 | 3.2
22 | AUACUUCAAACAAUCGGUCUC [Fam1A.1 aminoacylation ribozyme variant] | 0.754 | 7.89 | 0.789 | 0.787 | 0.823 | 13.5
23 | AUACUUCAAACUAUCGGUCUG [Fam1A.1 aminoacylation ribozyme variant] | 0.873 | 0.924 | 0.93 | 0.964 | 1.02 | 1.01
